Measured values from the supplement of paper PMC12819154, “High-throughput peptide-centric local stability assay extends protein–ligand identification to membrane proteins, tissues and bacteria” (Nature Structural & Molecular Biology, 2025).
This is one part of the list. Small differences around the control level are noise.

Amino acid sequences for entries named in this document (tags omitted). A change or cut given only in a name is not applied to a line headed by its entry.
UniProt Q9BVN2: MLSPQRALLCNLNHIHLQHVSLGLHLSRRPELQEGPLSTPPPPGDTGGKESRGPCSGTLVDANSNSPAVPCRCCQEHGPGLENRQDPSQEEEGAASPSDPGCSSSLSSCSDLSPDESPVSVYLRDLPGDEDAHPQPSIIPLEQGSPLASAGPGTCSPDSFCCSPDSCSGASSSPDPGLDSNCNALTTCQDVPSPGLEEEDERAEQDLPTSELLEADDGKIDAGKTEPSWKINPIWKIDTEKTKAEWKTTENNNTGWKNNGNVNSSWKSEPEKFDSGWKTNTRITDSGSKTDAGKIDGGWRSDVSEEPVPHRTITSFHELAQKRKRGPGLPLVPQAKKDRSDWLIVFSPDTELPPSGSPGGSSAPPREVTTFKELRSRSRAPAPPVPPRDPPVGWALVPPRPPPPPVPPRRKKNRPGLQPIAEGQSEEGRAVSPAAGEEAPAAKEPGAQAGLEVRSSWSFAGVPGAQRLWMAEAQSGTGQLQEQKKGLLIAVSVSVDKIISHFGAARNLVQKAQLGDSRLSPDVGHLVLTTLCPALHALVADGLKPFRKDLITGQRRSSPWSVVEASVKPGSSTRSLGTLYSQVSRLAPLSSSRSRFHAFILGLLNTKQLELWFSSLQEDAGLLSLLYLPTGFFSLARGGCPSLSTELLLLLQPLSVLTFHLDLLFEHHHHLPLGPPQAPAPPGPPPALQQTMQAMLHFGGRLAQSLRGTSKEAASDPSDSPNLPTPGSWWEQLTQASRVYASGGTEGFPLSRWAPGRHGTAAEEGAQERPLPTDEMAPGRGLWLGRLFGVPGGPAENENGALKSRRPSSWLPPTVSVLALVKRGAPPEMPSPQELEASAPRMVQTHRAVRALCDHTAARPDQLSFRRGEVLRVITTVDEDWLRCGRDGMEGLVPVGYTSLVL
UniProt Q9H040: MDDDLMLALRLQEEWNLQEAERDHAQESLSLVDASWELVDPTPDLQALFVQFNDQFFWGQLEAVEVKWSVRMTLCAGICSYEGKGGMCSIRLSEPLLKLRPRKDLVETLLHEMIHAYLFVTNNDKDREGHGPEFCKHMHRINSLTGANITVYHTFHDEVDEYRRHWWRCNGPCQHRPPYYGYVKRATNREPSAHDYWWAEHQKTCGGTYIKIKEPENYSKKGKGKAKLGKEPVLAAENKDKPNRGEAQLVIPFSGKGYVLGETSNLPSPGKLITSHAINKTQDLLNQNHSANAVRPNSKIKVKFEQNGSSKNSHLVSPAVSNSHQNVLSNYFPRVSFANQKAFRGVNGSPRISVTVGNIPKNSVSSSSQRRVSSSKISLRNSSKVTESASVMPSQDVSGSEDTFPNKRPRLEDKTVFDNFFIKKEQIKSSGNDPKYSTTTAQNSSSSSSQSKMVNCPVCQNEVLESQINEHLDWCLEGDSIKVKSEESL
UniProt Q9BWT6: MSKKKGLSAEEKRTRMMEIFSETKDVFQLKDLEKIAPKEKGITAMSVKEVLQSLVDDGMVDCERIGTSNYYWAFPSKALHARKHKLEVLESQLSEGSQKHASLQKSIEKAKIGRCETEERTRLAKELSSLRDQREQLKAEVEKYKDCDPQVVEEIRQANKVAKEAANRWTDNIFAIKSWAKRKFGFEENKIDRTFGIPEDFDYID
UniProt Q9BXR0: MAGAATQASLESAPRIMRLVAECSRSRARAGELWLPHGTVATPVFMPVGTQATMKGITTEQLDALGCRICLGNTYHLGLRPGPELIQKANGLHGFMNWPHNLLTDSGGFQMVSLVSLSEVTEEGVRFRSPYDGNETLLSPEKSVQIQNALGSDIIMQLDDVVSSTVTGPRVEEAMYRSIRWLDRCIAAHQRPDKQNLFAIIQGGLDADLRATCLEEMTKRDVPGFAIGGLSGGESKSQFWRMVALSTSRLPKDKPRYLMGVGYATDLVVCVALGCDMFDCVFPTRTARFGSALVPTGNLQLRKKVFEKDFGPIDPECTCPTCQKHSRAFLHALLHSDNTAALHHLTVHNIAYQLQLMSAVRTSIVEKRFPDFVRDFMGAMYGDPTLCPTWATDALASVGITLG
UniProt Q9BZQ8: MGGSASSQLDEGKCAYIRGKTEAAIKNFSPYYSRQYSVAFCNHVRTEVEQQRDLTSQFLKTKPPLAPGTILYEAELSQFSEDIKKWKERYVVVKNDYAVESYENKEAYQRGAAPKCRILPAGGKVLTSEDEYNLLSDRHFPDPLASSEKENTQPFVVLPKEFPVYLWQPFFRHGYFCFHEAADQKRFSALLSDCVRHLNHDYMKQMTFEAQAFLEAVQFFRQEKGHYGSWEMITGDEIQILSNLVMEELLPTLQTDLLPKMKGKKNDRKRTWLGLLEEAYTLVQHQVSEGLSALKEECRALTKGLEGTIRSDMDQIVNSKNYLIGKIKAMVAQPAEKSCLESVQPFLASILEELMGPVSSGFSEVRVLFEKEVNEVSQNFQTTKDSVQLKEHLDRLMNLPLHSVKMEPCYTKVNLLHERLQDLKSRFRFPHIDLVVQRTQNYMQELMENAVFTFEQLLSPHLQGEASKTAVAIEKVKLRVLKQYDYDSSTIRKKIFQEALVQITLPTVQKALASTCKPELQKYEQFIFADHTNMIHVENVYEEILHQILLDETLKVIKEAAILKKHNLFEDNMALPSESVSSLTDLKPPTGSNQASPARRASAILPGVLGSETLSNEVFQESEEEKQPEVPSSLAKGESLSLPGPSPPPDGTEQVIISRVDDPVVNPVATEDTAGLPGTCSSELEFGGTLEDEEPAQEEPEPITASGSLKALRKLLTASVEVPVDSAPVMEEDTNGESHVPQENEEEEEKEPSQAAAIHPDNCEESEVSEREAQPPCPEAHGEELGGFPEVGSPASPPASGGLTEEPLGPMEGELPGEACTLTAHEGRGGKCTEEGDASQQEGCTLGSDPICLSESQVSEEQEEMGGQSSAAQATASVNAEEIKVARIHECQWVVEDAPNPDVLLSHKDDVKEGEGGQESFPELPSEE
UniProt Q9BYG5: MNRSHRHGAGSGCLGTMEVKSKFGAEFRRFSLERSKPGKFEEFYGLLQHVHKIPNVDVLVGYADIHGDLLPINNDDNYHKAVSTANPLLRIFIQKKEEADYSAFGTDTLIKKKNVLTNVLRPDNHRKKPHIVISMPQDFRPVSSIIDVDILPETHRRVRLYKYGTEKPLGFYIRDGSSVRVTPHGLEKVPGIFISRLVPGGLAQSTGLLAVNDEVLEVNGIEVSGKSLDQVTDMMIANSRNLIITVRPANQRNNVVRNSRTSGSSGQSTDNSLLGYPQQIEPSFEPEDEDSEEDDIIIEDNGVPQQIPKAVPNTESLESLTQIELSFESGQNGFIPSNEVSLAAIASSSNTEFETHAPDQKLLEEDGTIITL
UniProt Q9BWE0: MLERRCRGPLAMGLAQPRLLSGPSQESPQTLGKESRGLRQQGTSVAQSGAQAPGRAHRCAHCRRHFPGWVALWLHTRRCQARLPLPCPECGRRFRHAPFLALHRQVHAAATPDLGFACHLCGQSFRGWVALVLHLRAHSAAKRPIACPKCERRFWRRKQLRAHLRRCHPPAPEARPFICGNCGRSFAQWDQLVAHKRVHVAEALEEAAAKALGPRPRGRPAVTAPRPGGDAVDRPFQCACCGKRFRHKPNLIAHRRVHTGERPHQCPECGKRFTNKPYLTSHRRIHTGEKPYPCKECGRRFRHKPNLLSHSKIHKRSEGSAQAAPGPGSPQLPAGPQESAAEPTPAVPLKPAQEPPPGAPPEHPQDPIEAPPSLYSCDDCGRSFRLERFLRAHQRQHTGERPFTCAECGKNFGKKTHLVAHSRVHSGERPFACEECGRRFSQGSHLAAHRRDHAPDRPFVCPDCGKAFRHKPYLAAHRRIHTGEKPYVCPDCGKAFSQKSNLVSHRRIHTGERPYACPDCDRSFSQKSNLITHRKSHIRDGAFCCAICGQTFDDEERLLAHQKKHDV
UniProt Q9C0D4: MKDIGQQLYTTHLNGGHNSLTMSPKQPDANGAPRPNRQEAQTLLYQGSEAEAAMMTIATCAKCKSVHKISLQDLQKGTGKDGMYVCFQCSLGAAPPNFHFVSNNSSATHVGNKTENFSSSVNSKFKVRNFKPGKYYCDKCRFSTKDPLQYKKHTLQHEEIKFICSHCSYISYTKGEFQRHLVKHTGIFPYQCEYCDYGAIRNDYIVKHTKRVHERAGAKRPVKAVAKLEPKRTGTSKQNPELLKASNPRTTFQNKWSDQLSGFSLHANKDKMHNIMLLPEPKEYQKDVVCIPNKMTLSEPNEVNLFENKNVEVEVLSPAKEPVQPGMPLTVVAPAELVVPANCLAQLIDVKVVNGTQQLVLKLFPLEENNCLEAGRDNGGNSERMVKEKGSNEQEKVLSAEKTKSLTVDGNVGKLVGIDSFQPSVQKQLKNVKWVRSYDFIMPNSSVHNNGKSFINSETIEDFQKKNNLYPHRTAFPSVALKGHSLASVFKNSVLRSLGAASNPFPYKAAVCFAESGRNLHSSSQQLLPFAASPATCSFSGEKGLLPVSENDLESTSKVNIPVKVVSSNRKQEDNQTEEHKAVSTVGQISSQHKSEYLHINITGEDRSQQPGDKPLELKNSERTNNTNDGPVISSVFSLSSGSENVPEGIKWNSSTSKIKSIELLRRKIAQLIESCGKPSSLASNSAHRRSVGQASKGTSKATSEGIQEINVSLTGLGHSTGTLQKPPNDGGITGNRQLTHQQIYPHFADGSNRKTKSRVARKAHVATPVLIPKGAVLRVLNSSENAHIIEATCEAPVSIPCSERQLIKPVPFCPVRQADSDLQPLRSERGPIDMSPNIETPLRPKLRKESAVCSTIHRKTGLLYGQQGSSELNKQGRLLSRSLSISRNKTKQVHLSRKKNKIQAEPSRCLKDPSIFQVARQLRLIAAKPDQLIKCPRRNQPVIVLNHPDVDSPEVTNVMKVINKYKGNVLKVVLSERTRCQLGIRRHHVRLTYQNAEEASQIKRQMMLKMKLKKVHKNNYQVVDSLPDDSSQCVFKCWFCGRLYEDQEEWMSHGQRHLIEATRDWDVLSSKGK
UniProt Q9BVM2: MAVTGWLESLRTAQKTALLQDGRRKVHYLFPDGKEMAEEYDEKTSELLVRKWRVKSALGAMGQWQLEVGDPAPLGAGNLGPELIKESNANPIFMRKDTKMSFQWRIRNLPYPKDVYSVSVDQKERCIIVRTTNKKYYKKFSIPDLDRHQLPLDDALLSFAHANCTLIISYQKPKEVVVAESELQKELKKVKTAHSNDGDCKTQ
UniProt Q9BX95: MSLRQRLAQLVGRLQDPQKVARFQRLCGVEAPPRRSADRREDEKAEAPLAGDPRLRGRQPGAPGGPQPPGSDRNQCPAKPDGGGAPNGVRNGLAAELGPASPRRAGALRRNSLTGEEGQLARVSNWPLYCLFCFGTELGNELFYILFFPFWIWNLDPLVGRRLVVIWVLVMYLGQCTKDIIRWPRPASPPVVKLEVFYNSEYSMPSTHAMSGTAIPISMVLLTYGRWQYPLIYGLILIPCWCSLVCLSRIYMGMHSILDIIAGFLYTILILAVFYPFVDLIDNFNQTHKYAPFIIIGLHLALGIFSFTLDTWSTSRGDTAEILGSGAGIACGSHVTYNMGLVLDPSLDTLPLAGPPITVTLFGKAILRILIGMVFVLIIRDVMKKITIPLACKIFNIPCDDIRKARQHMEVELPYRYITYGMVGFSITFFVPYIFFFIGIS
UniProt Q9BWP8: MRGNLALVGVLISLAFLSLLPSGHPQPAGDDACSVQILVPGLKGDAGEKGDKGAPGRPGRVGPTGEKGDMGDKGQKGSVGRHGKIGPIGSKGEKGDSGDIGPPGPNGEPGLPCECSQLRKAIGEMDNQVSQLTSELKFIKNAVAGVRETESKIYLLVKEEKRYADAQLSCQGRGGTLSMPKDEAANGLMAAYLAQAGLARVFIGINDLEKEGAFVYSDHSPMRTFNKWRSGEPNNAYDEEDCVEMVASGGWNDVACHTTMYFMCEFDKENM
UniProt Q9BVC3, whole entry: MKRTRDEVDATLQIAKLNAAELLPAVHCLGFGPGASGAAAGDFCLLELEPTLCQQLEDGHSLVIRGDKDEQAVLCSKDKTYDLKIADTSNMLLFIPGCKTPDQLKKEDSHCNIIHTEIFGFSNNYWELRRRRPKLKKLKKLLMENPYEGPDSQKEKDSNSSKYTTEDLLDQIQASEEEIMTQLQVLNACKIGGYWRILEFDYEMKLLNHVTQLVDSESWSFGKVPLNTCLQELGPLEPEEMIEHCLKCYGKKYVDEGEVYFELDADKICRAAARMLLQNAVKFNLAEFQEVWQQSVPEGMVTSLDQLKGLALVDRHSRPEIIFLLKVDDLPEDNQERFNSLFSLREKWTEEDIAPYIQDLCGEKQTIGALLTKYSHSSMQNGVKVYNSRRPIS
UniProt Q9GZT4: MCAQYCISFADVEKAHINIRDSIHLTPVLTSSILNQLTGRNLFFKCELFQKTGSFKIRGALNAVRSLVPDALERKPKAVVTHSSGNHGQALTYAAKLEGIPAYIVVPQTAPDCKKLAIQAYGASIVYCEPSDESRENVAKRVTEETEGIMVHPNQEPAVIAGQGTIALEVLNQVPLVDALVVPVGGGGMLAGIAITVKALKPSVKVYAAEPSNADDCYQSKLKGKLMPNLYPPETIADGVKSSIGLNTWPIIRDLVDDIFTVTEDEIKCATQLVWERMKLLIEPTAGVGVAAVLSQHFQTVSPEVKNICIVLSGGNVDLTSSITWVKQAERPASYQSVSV

compound: Cc1nc(Nc2ncc(C(=O)Nc3c(C)cccc3Cl)s2)cc(N2CCN(CCO)CC2)n1 [dasatinib]; test: log2 fold change of tryptic peptide abundance, ligand vs vehicle (limited proteolysis) (log2 ratio); higher = more trypsin-susceptible (destabilized); settings: ligand concentration: 5 uM; sample: K562 cleared lysate

| Target | log2 fold change |
| --- | --- |
| ASCC2 (peptide sequence: PALPLDQLQITHKDPK, peptide start residue: 2) (UniProt Q9H1I8) | -0.234 |
| UniProt Q9H0X4 (peptide sequence: KPIFGRYK, peptide start residue: 372) | 0.0843 |
| MRPL18 (peptide sequence: NLELLSVAR, peptide start residue: 55) (UniProt Q9H0U6) | 0.145 |
| ILKAP (peptide sequence: NGSEELVEKK, peptide start residue: 87) (UniProt Q9H0C8) | -0.513 |
| MAK16 (peptide sequence: TKTQSFCR, peptide start residue: 23) (UniProt Q9BXY0) | -0.503 |
| WDR11 (peptide sequence: STYDHTRKCTDQLLLLGQTDR, peptide start residue: 992) (UniProt Q9BZH6) | -0.33 |
| RUSC1 (peptide sequence: SRFHAFILGLLNTK, peptide start residue: 594) (UniProt Q9BVN2) | -0.0604 |
| RAB1B (peptide sequence: MGPGAASGGERPNLK, peptide start residue: 173) (UniProt Q9H0U4) | -0.058 |
| MRPL1 (peptide sequence: NEESEKEDA, peptide start residue: 317) (UniProt Q9BYD6) | 0.112 |
| SPRTN (peptide sequence: DKPNRGEAQLVIPFSGK, peptide start residue: 240) (UniProt Q9H040) | -0.473 |
| UniProt Q9BWC9 (peptide sequence: MEAEDHCR, peptide start residue: 102) | 0.311 |
| MND1 (peptide sequence: GLSAEEKR, peptide start residue: 6) (UniProt Q9BWT6) | -0.341 |
| QTRT1 (peptide sequence: ATCLEEMTKR, peptide start residue: 211) (UniProt Q9BXR0) | -0.347 |
| UniProt Q9BZQ8 (peptide sequence: LMNLPLHSVK, peptide start residue: 396) | -0.574 |
| MRI1 (peptide sequence: GVSAVVVGADRVVANGDTANK, peptide start residue: 239) (UniProt Q9BV20) | 0.416 |
| PARD6B (peptide sequence: YGTEKPLGFYIR, peptide start residue: 163) (UniProt Q9BYG5) | -0.0989 |
| NACA4P (peptide sequence: SKNILFVITKPDVYK, peptide start residue: 1962) (UniProt Q9BZK3) | -0.105 |
| REPIN1 (peptide sequence: IHTGEKPYPCKECGR, peptide start residue: 285) (UniProt Q9BWE0) | -0.588 |
| MRPS26 (peptide sequence: EREVLQLQEEVK, peptide start residue: 154) (UniProt Q9BYN8) | 0.254 |

| Target | log2 fold change |
| --- | --- |
| TRIM4 (peptide sequence: HPSAPAALRPNWALAR, peptide start residue: 54) (UniProt Q9C037) | -0.0112 |
| KIFC1 (peptide sequence: RGTLSGAPAPPTRHDFSFDR, peptide start residue: 357) (UniProt Q9BW19) | -0.286 |
| NIF3L1 (peptide sequence: FVDSLICNSSR, peptide start residue: 15) (UniProt Q9GZT8) | -0.235 |
| UniProt Q9C0B9 (peptide sequence: ANGLSDPGPLADFREPAVR, peptide start residue: 152) | -0.028 |
| MRPL37 (peptide sequence: ESLLLQVR, peptide start residue: 216) (UniProt Q9BZE1) | 0.58 |
| UniProt Q9C0D4 (peptide sequence: GPIDMSPNIETPLRPK, peptide start residue: 831) | -0.741 |
| AP1M1 (peptide sequence: HNNLYLVATSKK, peptide start residue: 62) (UniProt Q9BXS5) | -0.448 |
| UniProt Q9BV29 (peptide sequence: KECWDRFLQEK, peptide start residue: 109) | 0.136 |
| KATNAL1 (peptide sequence: LLFEMAR, peptide start residue: 292) (UniProt Q9BW62) | -0.121 |
| DPCD (peptide sequence: ESNANPIFMR, peptide start residue: 86) (UniProt Q9BVM2) | -0.147 |
| UniProt Q9BUT9 (peptide sequence: CRQPAPPTSQPPR, peptide start residue: 34) | 0.0759 |
| HIRIP3 (peptide sequence: TAWNPLGEAAPPGELYRR, peptide start residue: 509) (UniProt Q9BW71) | -0.343 |
| SGPP1 (peptide sequence: NGLAAELGPASPR, peptide start residue: 91) (UniProt Q9BX95) | -0.277 |
| COLEC11 (peptide sequence: YADAQLSCQGR, peptide start residue: 163) (UniProt Q9BWP8) | -0.0619 |
| HELZ2 (peptide sequence: LVLAGDHMQVTPR, peptide start residue: 690) (UniProt Q9BYK8) | -0.208 |
| DSCC1 (peptide sequence: TRDEVDATLQIAK, peptide start residue: 4) (UniProt Q9BVC3) | 0.136 |
| SRR (peptide sequence: SLVPDALER, peptide start residue: 66) (UniProt Q9GZT4) | 0.1 |
| UniProt Q9BWW4 (peptide sequence: GKGSAVPSDGQAR, peptide start residue: 5) | 0.458 |
| TOLLIP (peptide sequence: LRLGYAVYETPTAHNGAK, peptide start residue: 79) (UniProt Q9H0E2) | 0.27 |

Reprinted from the results shown (3 entries):

| Target | log2 fold change |
| --- | --- |
| MRPS26 (peptide sequence: EREVLQLQEEVK, peptide start residue: 154) (UniProt Q9BYN8) | 0.254 |
| TRIM4 (peptide sequence: HPSAPAALRPNWALAR, peptide start residue: 54) (UniProt Q9C037) | -0.0112 |
| KIFC1 (peptide sequence: RGTLSGAPAPPTRHDFSFDR, peptide start residue: 357) (UniProt Q9BW19) | -0.286 |
